Data taken from the supplement of paper PMC9233669.
Variants at the background level are over-represented here.

What was measured:
biotinyl-Phe-oxazolone = assay: self-aminoacylation, catalytic enhancement (BFO) (fold over background); higher = more active; k-Seq, kA / k0A0; sequences stand for … in GGGAAUGGAUCCACAUCUACGAAUUC…UUCACUGCAGACUUGACGAAGCUG
Method in brief: (§1)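 Working in 50 μL HEPES/NaCl/KCl/MgCl2/CaCl2 buffer with 5% acetonitrile at pH 6.9–7.0, mutagenized RNA pools (0.43 μM; 21-nt variable region) were reacted with 2–1250 μM of each biotinyl-aminoacyl-oxazolone for 90 minutes at room temperature. Streptavidin capture followed, with quantification by triplicate qPCR and Illumina sequencing. Catalytic enhancement is reported as median kA over the uncatalyzed rate, the low-activity peak of a bimodal Gaussian fit to the data.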

biotinyl-Leu-oxazolone = assay: self-aminoacylation, catalytic enhancement (BLO) (fold over background); higher = more active; k-Seq, kA / k0A0; sequences stand for … in GGGAAUGGAUCCACAUCUACGAAUUC…UUCACUGCAGACUUGACGAAGCUG
Method in brief: as §1

biotinyl-Met-oxazolone = assay: self-aminoacylation, catalytic enhancement (BMO) (fold over background); higher = more active; k-Seq, kA / k0A0; sequences stand for … in GGGAAUGGAUCCACAUCUACGAAUUC…UUCACUGCAGACUUGACGAAGCUG
Method in brief: as §1

biotinyl-Val-oxazolone = assay: self-aminoacylation, catalytic enhancement (BVO) (fold over background); higher = more active; k-Seq, kA / k0A0; sequences stand for … in GGGAAUGGAUCCACAUCUACGAAUUC…UUCACUGCAGACUUGACGAAGCUG
Method in brief: as §1

biotinyl-Ile-oxazolone = assay: self-aminoacylation, catalytic enhancement (BIO) (fold over background); higher = more active; k-Seq, kA / k0A0; sequences stand for … in GGGAAUGGAUCCACAUCUACGAAUUC…UUCACUGCAGACUUGACGAAGCUG
Method in brief: as §1

biotinyl-Trp-oxazolone = assay: self-aminoacylation, catalytic enhancement (BWO) (fold over background); higher = more active; k-Seq, kA / k0A0; sequences stand for … in GGGAAUGGAUCCACAUCUACGAAUUC…UUCACUGCAGACUUGACGAAGCUG
Method in brief: as §1

Sequence	self-aminoacylation (biotinyl-Phe-oxazolone)	self-aminoacylation (biotinyl-Leu-oxazolone)	self-aminoacylation (biotinyl-Met-oxazolone)	self-aminoacylation (biotinyl-Val-oxazolone)	self-aminoacylation (biotinyl-Ile-oxazolone)	self-aminoacylation (biotinyl-Trp-oxazolone)
CCACUCUUCAAGCAAUCGGUA [Fam1B.1 aminoacylation ribozyme variant]	0.73	1.14	1.23	1.33	1.2	1.47
CCACUCUUCAAGCAUUCGGUC [Fam1B.1 aminoacylation ribozyme variant]	0.975	1.31	1.21	1.67	1.44	1.72
CCACUCUUCAAGCUAUCGGUC [Fam1B.1 aminoacylation ribozyme variant]	0.862	0.81	0.853	1	0.841	0.736
CCACUCUUCAUGCAAUCGGUC [Fam1B.1 aminoacylation ribozyme variant]	0.763	0.657	0.848	0.807	0.919	0.901
CCACUGUUCAAGCAAUCGGUC [Fam1B.1 aminoacylation ribozyme variant]	1.49	0.952	1.03	1.12	1.04	1.25
CCACUUCAAACAAUCGAUCUG [Fam1A.1 aminoacylation ribozyme variant]	4.61	0.642	0.464	0.714	0.781	1.7
CCACUUCAAACAAUCGGACUG [Fam1A.1 aminoacylation ribozyme variant]	22.6	1.26	1.03	1.1	0.9	14.9
CCACUUUUCAAGCAAUCGGUC [Fam1B.1 aminoacylation ribozyme variant]	1.58	1.1	1.1	1.32	1.25	1.06
CCAGACUUCCAGCAAUCGGUC [Fam1B.1 aminoacylation ribozyme variant]	0.843	1.25	1.47	1.47	1.44	1.06
CCAUACUUCAAGCAAUCGAUC [Fam1B.1 aminoacylation ribozyme variant]	1.01	0.489	0.45	0.842	0.666	0.638
CCAUACUUCAGGCAAUCGGUC [Fam1B.1 aminoacylation ribozyme variant]	0.733	1.06	1.21	1.21	1.22	1.22
CCAUACUUCAUGCAAUCGGUC [Fam1B.1 aminoacylation ribozyme variant]	0.778	0.832	0.806	0.858	0.875	0.56
CCAUACUUCUAGCAAUCGGUC [Fam1B.1 aminoacylation ribozyme variant]	0.913	0.715	0.642	0.871	0.907	0.637
CCAUACUUGAAGCAAUCGGUC [Fam1B.1 aminoacylation ribozyme variant]	0.498	0.771	0.561	0.681	0.744	0.686
CCAUACUUUAAGCAAUCGGUC [Fam1B.1 aminoacylation ribozyme variant]	0.907	0.746	0.655	0.857	0.906	0.599
CCGCACGUCAAGCAAUCGGUC [Fam1B.1 aminoacylation ribozyme variant]	1.95	0.78	0.625	1.77	0.807	0.777
CCGCACUUCAAGCAAUCGAUC [Fam1B.1 aminoacylation ribozyme variant]	1.66	0.449	0.335	0.658	0.521	0.822
CCGCACUUCAAGCAAUCGGAC [Fam1B.1 aminoacylation ribozyme variant]	1.31	0.812	1	1.12	1.07	1.86
CCUCACUACAAGCAAUCGGUC [Fam1B.1 aminoacylation ribozyme variant]	1.44	0.744	0.564	0.735	0.719	0.782
CCUCACUUCAAGCAAUCGAUC [Fam1B.1 aminoacylation ribozyme variant]	1.71	0.453	0.482	0.691	0.494	0.672
CGACACUUCAAGCAAUGGGUC [Fam1B.1 aminoacylation ribozyme variant]	0.676	0.718	0.702	0.836	0.935	0.638

Sequence	self-aminoacylation (biotinyl-Phe-oxazolone)	self-aminoacylation (biotinyl-Leu-oxazolone)	self-aminoacylation (biotinyl-Met-oxazolone)	self-aminoacylation (biotinyl-Val-oxazolone)	self-aminoacylation (biotinyl-Ile-oxazolone)	self-aminoacylation (biotinyl-Trp-oxazolone)
CGACACUUCAAGCAUUCGGUC [Fam1B.1 aminoacylation ribozyme variant]	3.31	1.55	1.64	1.99	1.8	1.51
CGACACUUCAAGCGAUCGGUC [Fam1B.1 aminoacylation ribozyme variant]	0.915	1.42	1.29	1.46	1.59	1.79
CGACACUUCAAGCUAUCGGUC [Fam1B.1 aminoacylation ribozyme variant]	0.581	0.877	0.695	1.11	1.05	1.03
CGACACUUUAAGCAAUCGGUC [Fam1B.1 aminoacylation ribozyme variant]	0.833	0.779	0.74	1.06	1.07	0.727
CGACUUAAAACAAUCGGUCUG [Fam1A.1 aminoacylation ribozyme variant]	1.15	1.26	1.48	1.17	1.33	1.06
CGACUUCAAACAAACGGUCUG [Fam1A.1 aminoacylation ribozyme variant]	1.04	0.859	0.914	0.895	0.944	0.719
CGACUUCAAACAAUAGGUCUG [Fam1A.1 aminoacylation ribozyme variant]	1.15	0.644	0.779	0.768	0.889	0.783
CGACUUCAAACUAUCGGUCUG [Fam1A.1 aminoacylation ribozyme variant]	1.76	1.07	1.1	1.34	1.15	1.07
CGCCACUUCAAGCAAUCGGUC [Fam1B.1 aminoacylation ribozyme variant]	37.1	2.26	1.39	1.69	1.53	24.2
CUAAUCCAAACAAUCGGUCUG [Fam1A.1 aminoacylation ribozyme variant]	1.08	0.627	0.702	0.786	0.717	0.473
CUACACUUCAAGCAACCGGUC [Fam1B.1 aminoacylation ribozyme variant]	1.03	0.663	0.749	1.02	0.923	0.531
CUACACUUCAAGCAAUCGGAC [Fam1B.1 aminoacylation ribozyme variant]	1.9	0.602	0.963	0.657	0.806	0.898
CUACACUUCAAGCACUCGGUC [Fam1B.1 aminoacylation ribozyme variant]	0.867	0.757	0.786	0.945	0.886	0.614
CUACCUCAAACAAUCGGACUG [Fam1A.1 aminoacylation ribozyme variant]	1.27	0.614	0.915	0.833	0.872	1.05
CUACCUCAAACAAUCUGUCUG [Fam1A.1 aminoacylation ribozyme variant]	0.973	0.57	0.637	0.787	0.73	0.807
CUACCUCAAACCAUCGGUCUG [Fam1A.1 aminoacylation ribozyme variant]	0.637	0.892	0.85	1.06	1.09	1.26
CUACCUCAAACUAUCGGUCUG [Fam1A.1 aminoacylation ribozyme variant]	1.03	1.17	0.761	1.08	0.913	0.812
CUACGUCAAACAAUAGGUCUG [Fam1A.1 aminoacylation ribozyme variant]	1.5	0.855	0.62	0.94	0.789	0.602
CUACGUCAAACAAUCGGUCUU [Fam1A.1 aminoacylation ribozyme variant]	0.732	1.03	1.01	1.23	1.03	1.55
CUACGUCAACCAAUCGGUCUG [Fam1A.1 aminoacylation ribozyme variant]	3.4	1.12	1.14	1.4	1.17	1.23
CUACUACAAACAAUCGCUCUG [Fam1A.1 aminoacylation ribozyme variant]	0.783	0.509	0.521	0.639	0.702	0.522
